Library screen at single concentrations

From ChEMBL document CHEMBL3988442, “University of Dundee, Small-Polar-MMV Screening Library” (2021).

Each number is a percent effect as filed. How 0% and 100% were set is not recorded. Most values in the screen are low, and negative values occur. The compounds are a random part of those screened.

A: 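Growth of Mycobacterium tuberculosis over 4 days (cholesterol / DPPC medium with tyloxapol); the read-out is not stated. Compounds at 500 µM. Higher reads as more growth inhibition (inferred: compounds with an IC50 in retests scored well above the rest). Of about 18,000 compounds tested this way, about 900 (5%) reached 50% or more in at least one test.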
B: 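Whole-cell growth test on Mycobacterium tuberculosis, read after 3 days in glucose-containing 7H9 medium; the read-out is not stated. Tested at 500 µM. Higher reads as more growth inhibition (inferred: compounds with an IC50 in retests scored well above the rest). Size under these conditions: about 18,000 compounds, about 1,400 of them at 50% or above in at least one test.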

- NCc1ncn(-c2ccccc2)n1 : A: 6.51%; B: 9.282%
- CC(C)CCC(=O)N1CCC(C)(CO)C1 (stereo not shown) : A: 20.8%; B: 14.47%
- CN(C)c1cc(CNC(=O)c2cnn(C)c2)ccn1 : A: -0.6088%; B: 17.8%
- Cc1ccc(C(=O)NCC(C)(C)N(C)C)cn1 : A: 3.234%; B: 12.57%
- COc1ccc(OC)c(CNC(=O)C(C)NC(N)=O)c1 (stereo not shown) : A: -12.48%; B: -14.16%
- CC(C)NC(=O)C(C)N (stereo not shown) : A: 10.08%; B: 12.45%
- COCCSCc1cccc(NC(=O)C(C)N)c1 (stereo not shown) : A: 18.42%; B: 52.87%
- Nc1ccc(CN2CCN(CCO)CC2)cn1 : A: -1.942%; B: 1.079%
- O=C(c1cnsn1)N1CCN(Cc2ccc(Cl)s2)CC1 : A: -18.23%; B: 86.7%
- CC(CN1CCN(c2ccccn2)CC1)NS(C)(=O)=O (stereo not shown) : A: 1.018%; B: 16.39%
- Cc1cnn(CCNCCS(C)(=O)=O)c1 : A: -8.905%; B: 9.406%
- CCC(=O)N1CCCN(CC2CC2)CC1 : A: 5.722%; B: -1.069%
- CCCC(=O)NCC1CCCNC1 (stereo not shown) : A: 11.57%; B: 7.024%
- O=C(CCNc1nc2ccccc2o1)N1CCCC1 : A: -20.63%; B: -13.94%
- CCn1cnnc1CNC(=O)CC1C=CCC1 (stereo not shown) : A: -4.693%; B: 2.447%
- COCc1ccccc1C(=O)NCCN1CCCC1 : A: -3.266%; B: -4.582%
- NCc1cccc(S(=O)(=O)N2CCCCC2)c1 : A: 14.96%; B: 41.11%
- Cc1ccc(F)cc1CNCC1(O)CCOC1 (stereo not shown) : A: 22.3%; B: 3.746%
- c1cc2c(cc1-c1nc3c([nH]1)CCNC3)OCO2 : A: -0.2435%; B: 8.865%
- CCOC(=O)N1CC(N)C1 : A: 8.246%; B: -1.698%
- CCN1CC(C(N)=O)CC1=O (stereo not shown) : A: 14.52%; B: -2.878%
- CC(C)C(=O)N1CCC(NC(=O)c2ccncc2)CC1 : A: -23.13%; B: 40.06%
- Cc1c(CNC(=O)COc2ccccc2)cnn1C : A: 19.59%; B: 32.77%
- CN(C)C(=O)CNC(=O)C(C)(C)Oc1ccc(Cl)cc1 : A: 11.04%; B: 17.98%
- Cn1cc(CNc2ccc(F)cc2)cn1 : A: 21.51%; B: 27.84%
- N#Cc1cnc2ccccc2c1N : A: -19.92%; B: -8.538%
- O=C(c1cccs1)N1CCCN(Cc2cscn2)CC1 : A: 18.87%; B: 41.69%
- CCOC(=O)Cc1csc(NC(=O)c2ccccn2)n1 : A: -3.917%; B: 1.124%
- Cc1ccc(F)c(NC(=O)N2CCOCC2CO)c1 (stereo not shown) : A: -3.415%; B: 19.62%
- OC1(Cc2cccnc2)CCNCC1 : A: 0.1484%; B: 4.338%
- CC(C)[C@@H]1CN(C(=O)CCn2cncn2)C[C@H]1N(C)C : A: 5.028%; B: 7.268%
- Cc1cc(C(=O)N(C)CC(C)(CO)CO)cc(C)c1F : A: 5.511%; B: 28.96%
- Cc1cc(CN2C[C@@H](F)C[C@H]2CN)on1 : A: -8.333%; B: 3.049%
- CC(=O)Nc1ccc(CNC(=O)C(C)C)cc1 : A: -3.59%; B: -8.197%
- CN(Cc1ncc[nH]1)C(=O)C(O)c1cccc(Cl)c1 (stereo not shown) : A: -5.116%; B: 14.27%
- COc1ccccc1-c1ncc(CN)s1 : A: -10.77%; B: -5.427%
- Cc1ccnc(NC(=O)CNC(=O)c2ccccc2)c1 : A: 8.499%; B: 5.459%
- CC(=O)N1CCCN(S(=O)(=O)c2ncn(C)c2Cl)CC1 : A: 0.2664%; B: 9.129%
- O=C1CN(S(=O)(=O)CCC2CC2)c2ccccc2N1 : A: -7.483%; B: 11.81%
- CCc1c(C)nc2sc(C(N)=O)c(N)c2c1C : A: -4.797%; B: -7.408%
- CN(C)C1CCN(C(=O)CC2CCNCC2)CC1 : A: 7.905%; B: 5.547%
- O=C(NC1COC2(CCNCC2)C1)c1cnccn1 (stereo not shown) : A: 8.852%; B: 2.787%

Some entries from above, unchanged:

| SMILES | A | B |
|---|---|---|
| `Cn1cc(CNc2ccc(F)cc2)cn1` | 21.51% | 27.84% |
| `O=C(CCNc1nc2ccccc2o1)N1CCCC1` | -20.63% | -13.94% |
| `CC(=O)Nc1ccc(CNC(=O)C(C)C)cc1` | -3.59% | -8.197% |
| `Cc1cc(CN2C[C@@H](F)C[C@H]2CN)on1` | -8.333% | 3.049% |
| `CCCC(=O)NCC1CCCNC1` (stereo not shown) | 11.57% | 7.024% |